In publication PMC11633308:
These are yes or no findings as the source states them, for the method shown. Binding seen in cells or lysates may run through a third protein. Here binding means that the protein was enriched with, or labelled near, the bait; the list need not be complete. Sequences can lack the tags named with a protein.

Protein sequences, listed by entry. Tags and fused reporters are not part of them.
UniProt Q86US8: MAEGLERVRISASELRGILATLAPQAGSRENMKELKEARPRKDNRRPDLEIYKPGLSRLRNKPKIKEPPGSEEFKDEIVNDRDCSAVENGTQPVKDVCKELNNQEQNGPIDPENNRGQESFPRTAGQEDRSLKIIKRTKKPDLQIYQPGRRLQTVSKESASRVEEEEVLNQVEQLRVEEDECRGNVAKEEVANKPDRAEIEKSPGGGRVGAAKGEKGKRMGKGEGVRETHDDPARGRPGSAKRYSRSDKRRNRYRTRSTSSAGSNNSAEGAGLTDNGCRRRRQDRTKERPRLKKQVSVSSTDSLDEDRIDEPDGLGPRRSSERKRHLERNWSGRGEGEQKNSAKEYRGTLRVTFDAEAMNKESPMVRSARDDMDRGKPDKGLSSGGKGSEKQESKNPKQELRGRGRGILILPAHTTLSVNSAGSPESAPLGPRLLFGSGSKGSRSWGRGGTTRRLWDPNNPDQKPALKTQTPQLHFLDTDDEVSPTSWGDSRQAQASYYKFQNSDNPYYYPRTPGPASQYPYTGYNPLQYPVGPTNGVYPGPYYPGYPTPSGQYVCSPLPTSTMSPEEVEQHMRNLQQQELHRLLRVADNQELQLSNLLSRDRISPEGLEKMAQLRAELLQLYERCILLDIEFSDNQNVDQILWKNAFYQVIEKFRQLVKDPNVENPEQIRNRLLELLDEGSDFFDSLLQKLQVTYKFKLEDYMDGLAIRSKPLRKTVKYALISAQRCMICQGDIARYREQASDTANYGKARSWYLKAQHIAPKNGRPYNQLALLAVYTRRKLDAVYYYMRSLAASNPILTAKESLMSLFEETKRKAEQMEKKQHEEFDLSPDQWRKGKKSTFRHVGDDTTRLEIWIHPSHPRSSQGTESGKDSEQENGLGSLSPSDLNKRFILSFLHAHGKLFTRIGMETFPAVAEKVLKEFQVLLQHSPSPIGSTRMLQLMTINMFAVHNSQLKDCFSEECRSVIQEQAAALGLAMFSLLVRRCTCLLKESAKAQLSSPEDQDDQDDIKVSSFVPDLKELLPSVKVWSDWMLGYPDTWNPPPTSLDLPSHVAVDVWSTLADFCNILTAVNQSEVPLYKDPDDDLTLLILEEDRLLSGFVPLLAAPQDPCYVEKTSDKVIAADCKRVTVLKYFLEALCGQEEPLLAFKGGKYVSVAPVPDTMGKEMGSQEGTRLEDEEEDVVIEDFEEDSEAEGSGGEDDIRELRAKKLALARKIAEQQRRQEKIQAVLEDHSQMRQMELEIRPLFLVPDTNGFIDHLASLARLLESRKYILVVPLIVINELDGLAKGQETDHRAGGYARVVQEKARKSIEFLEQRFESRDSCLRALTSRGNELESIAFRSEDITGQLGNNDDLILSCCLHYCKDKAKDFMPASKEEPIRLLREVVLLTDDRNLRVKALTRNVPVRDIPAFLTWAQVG
UniProt Q96GD4: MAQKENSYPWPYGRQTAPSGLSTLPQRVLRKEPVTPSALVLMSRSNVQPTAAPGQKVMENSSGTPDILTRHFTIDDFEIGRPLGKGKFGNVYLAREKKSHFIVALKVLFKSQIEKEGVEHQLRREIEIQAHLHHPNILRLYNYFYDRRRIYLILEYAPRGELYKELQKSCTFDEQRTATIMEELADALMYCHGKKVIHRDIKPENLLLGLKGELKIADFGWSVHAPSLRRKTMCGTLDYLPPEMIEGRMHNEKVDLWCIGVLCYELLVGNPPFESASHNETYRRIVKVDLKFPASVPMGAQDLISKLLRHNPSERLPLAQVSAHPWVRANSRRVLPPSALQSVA
UniProt Q14676: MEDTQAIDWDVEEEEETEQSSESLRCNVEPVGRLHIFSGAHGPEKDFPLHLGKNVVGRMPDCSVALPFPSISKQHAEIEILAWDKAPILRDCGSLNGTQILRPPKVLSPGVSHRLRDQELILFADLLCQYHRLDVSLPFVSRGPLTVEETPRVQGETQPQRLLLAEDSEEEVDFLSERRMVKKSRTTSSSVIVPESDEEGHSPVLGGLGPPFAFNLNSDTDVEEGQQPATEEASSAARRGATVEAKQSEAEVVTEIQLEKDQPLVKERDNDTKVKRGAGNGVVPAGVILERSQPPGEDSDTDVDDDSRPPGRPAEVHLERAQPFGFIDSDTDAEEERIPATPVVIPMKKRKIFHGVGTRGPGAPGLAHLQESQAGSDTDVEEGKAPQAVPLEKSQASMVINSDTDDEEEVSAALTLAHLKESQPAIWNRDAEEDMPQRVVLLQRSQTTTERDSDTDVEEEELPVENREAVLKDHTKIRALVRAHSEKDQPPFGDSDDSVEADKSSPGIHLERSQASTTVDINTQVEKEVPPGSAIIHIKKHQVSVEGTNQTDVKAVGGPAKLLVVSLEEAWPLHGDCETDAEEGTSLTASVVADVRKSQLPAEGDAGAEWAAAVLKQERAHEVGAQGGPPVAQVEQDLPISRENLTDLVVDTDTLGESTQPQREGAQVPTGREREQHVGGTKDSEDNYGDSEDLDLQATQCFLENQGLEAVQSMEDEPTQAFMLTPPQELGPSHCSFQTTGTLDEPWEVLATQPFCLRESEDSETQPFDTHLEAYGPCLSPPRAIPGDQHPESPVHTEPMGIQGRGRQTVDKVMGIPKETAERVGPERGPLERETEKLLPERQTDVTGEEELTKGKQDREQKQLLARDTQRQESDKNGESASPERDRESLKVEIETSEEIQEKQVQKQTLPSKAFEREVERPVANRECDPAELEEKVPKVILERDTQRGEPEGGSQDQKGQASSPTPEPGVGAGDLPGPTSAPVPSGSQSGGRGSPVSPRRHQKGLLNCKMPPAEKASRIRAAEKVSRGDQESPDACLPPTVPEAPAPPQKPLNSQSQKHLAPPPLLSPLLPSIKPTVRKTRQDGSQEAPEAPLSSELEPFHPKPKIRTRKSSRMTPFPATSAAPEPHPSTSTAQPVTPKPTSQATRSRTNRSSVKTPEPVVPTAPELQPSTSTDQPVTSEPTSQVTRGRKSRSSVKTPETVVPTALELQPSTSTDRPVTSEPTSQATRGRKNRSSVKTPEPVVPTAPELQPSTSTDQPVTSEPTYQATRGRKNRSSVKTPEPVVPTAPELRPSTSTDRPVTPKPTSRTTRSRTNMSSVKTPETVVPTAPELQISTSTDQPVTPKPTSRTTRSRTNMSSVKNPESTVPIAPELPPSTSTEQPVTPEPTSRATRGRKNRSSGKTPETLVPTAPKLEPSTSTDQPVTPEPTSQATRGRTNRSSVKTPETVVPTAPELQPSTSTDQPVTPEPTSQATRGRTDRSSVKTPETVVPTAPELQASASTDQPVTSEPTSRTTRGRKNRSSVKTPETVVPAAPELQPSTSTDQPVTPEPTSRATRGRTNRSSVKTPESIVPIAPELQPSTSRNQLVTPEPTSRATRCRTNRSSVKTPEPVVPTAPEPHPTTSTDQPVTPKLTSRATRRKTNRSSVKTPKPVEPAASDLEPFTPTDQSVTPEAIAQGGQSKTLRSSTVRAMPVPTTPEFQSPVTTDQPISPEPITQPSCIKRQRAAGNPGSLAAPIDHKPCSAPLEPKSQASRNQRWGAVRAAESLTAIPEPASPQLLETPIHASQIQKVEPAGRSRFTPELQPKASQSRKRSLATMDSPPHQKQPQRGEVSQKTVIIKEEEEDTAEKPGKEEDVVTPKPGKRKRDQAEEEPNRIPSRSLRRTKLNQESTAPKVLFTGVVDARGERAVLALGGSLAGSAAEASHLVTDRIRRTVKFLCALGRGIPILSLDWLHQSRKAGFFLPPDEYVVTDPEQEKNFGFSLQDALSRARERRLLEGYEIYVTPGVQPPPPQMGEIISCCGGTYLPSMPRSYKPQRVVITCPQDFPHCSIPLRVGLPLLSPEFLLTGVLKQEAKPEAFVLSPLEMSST

Experiments:
[1] = molecular target: T1, ZNF277, V5-tagged (human) (UniProt Q9NRM2); experiment: affinity purification with mass spectrometry; anti-V5 antibody and magnetic beads, overnight at 4 C, on lysates of HEK293T cells transfected with V5-tagged ZFP (n=3); untransfected cells as control; lysis buffer 150 mM NaCl, 50 mM Tris pH 7.5, 1% IGEPAL CA-630, 5% glycerol; on-bead trypsin digest, LC-MS/MS, LFQ; hits: log2FC over control IP > 1 and p < 0.05
T1 sequence: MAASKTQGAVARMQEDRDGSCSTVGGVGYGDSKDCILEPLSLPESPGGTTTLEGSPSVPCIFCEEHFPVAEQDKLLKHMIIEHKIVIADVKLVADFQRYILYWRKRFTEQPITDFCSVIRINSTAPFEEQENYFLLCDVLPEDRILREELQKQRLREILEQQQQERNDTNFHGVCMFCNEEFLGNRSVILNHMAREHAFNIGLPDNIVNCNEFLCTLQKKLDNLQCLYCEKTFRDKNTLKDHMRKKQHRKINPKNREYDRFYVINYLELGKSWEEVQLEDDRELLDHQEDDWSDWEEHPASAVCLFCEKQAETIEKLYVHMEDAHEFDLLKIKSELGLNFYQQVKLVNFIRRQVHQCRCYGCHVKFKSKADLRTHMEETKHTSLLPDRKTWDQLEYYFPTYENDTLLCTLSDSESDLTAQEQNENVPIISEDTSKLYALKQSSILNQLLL

[2] = molecular target: T2, ZNF473, V5-tagged (human) (UniProt Q8WTR7); experiment: as above
T2 sequence: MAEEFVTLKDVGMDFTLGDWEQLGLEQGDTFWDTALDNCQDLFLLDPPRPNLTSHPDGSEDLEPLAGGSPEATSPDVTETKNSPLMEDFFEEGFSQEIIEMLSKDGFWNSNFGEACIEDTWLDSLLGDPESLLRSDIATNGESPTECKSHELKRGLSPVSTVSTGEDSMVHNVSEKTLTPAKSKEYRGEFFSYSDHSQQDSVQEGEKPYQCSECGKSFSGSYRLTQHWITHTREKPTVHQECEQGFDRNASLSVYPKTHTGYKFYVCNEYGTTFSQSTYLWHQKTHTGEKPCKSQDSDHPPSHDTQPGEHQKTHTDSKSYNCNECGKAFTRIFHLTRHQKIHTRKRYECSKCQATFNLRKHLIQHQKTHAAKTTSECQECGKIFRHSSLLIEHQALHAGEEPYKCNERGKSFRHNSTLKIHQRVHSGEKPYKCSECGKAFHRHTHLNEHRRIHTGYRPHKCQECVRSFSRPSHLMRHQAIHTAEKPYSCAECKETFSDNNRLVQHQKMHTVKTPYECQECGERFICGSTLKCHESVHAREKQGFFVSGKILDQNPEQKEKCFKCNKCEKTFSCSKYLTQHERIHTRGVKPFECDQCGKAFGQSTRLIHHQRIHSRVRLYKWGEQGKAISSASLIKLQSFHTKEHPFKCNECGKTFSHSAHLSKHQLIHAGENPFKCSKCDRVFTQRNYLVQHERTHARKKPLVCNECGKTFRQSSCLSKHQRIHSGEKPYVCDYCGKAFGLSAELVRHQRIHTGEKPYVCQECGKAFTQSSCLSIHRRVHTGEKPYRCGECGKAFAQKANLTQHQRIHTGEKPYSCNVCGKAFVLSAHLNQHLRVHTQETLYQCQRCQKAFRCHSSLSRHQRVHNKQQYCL

Substance	binding [1]	binding [2]
SMG6 (from UniProt Q86US8 1-1419)	binds	–
aurora B kinase (AURKB) (from UniProt Q96GD4 1-344)	–	binds
mediator of DNA damage checkpoint protein 1 (MDC1) (from UniProt Q14676 1-2089)	–	binds
